Measurements as given in patent US20040044087A1, “Use of hop acids in fuel ethanol production” (priority 1999, published 2004).
Some of these results come from one statement about several compounds together. At least one structure is not confirmed: it was looked up by name or label, or the drawing left a doubt.

Tested on: Lb. brevis
Assay: Wheat mash fermentation contaminated with Lb. brevis
Format: cell-based, Lactobacillus brevis
Details: Example 5, inoculated 10^7 CFU/mL; Penicillin G 0.25 ppm, Virginiamycin 0.5 ppm, hop products at effective concentration

Compound	viable cell numbers after fermentation, Lb. brevis
CC1(C)S[C@@H]2[C@H](NC(=O)Cc3ccccc3)C(=O)N2[C@H]1C(=O)O [Penicillin G]	below 10^3 /mL
Virginiamycin	below 10^3 /mL
